Assay results as given in publication PMC11773481.
No constants are given. Whether binding was seen depends on the method and setting. Binding seen in cells or lysates may run through a third protein. Here binding means that the protein was enriched with, or labelled near, the bait; the list need not be complete.

By UniProt entry, the sequences of proteins in these tests, tags left out. Where a name states a change or a piece, a line headed by the entry shows the natural chain unless it says otherwise.
UniProt Q86TI2: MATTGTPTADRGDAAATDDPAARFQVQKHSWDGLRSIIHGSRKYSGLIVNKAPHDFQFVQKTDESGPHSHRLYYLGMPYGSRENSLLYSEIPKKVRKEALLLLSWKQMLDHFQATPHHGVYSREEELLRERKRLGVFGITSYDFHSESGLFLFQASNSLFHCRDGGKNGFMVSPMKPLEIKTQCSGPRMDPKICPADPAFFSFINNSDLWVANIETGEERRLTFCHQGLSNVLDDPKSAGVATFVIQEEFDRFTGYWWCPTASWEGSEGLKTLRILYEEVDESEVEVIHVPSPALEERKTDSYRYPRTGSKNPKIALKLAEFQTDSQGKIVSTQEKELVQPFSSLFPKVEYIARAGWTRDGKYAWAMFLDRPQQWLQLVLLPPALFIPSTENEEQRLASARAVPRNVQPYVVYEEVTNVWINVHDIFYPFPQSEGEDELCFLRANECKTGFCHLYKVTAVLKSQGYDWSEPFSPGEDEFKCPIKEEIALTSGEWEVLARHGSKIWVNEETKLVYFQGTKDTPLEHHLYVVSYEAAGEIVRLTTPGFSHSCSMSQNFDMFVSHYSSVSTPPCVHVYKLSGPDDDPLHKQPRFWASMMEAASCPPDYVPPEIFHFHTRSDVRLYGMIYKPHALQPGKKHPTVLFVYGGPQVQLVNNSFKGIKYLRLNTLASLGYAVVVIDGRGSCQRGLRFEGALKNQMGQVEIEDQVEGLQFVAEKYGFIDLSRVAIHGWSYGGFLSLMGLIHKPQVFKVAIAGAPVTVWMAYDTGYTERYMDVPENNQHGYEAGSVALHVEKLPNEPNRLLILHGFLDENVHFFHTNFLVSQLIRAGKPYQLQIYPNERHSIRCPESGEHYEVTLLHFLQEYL
UniProt O00483: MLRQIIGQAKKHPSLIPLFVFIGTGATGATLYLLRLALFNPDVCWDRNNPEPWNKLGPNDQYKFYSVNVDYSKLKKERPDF
UniProt Q14145: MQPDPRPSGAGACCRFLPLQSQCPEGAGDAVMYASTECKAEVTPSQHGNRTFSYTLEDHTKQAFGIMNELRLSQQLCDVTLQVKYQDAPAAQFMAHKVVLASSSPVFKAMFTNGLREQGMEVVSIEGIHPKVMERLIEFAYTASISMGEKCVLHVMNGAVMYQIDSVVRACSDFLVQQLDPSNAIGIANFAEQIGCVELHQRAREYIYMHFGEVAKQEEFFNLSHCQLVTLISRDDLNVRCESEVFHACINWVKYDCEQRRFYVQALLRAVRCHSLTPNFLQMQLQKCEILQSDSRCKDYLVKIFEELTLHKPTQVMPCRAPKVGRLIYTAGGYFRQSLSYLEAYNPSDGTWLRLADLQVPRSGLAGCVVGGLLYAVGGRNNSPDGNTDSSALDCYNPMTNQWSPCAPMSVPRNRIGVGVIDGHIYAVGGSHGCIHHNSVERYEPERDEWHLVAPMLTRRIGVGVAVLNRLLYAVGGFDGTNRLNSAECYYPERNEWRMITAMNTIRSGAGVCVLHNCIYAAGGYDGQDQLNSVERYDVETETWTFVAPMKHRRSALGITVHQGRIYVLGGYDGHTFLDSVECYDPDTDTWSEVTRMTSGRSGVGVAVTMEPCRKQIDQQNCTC
UniProt O60884: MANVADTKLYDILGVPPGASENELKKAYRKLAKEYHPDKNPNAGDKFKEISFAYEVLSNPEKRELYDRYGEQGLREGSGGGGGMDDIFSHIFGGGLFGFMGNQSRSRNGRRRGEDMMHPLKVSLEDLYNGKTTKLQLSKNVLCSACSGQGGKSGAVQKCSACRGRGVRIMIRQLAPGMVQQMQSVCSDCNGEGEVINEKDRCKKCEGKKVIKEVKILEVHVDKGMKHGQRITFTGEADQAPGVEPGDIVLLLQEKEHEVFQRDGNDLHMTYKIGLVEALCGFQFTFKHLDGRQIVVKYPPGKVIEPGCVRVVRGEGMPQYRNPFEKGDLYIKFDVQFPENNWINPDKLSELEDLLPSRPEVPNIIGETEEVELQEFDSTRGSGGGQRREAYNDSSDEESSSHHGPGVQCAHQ
UniProt O95816: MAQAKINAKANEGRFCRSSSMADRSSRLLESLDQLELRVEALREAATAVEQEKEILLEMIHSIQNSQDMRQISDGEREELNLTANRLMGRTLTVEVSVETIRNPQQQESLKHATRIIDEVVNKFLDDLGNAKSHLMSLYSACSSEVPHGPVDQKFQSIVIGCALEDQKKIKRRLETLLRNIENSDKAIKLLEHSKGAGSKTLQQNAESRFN

Legend:
[1] = molecular target: FLAG-tagged wild-type DPP9 (UniProt Q86TI2); assay: affinity purification with mass spectrometry; FLAG-tagged GFP, DPP9 WT or DPP9 S730A transiently expressed in DPP8/9−/− HEK 293T cells, anti-FLAG agarose IP, quantitative mass spectrometry; enrichment relative to the GFP control IP
[2] = molecular target: FLAG-tagged catalytically inactive S730A mutant DPP9 (UniProt Q86TI2); assay: as above

| binding [1] | binding [2] | Substance |
| --- | --- | --- |
| binds | binds | NDUFA4 (from UniProt O00483 1-81) |
|  | binds | endogenous KEAP1 (from UniProt Q14145 1-624) |
| binds | binds | DNAJA2 (from UniProt O60884 1-412) |
| binds | binds | BAG2 (from UniProt O95816 1-211) |
